From US20070243589A1
Substitutions are numbered along the chain they refer to. These are yes or no findings as the source states them, for the method shown. A result given as binding can be weak or reduced; the word gives no strength.

B1: 355E04 germlined IgG (antibody, V domains shown)
VH: QVQLVQSGAEVKKPGASVKVSCKASGYTFTHYYMHWVRQAPGQGLEWVGWINPYTGGAFYAQKFQGRVTMTRDTSISTAYMELSRLRSDDTAVYYCAREPEKFDSPNAEIWGRGTLVTVSS
VL: QAVLTQPPSVSGAPGQRVTISCTGSSSNIGAGYGVHWYQQLPGTAPKLLIYGNSNRPSGVPDRFSGSKSGTSASLAITGLQAEDEADYYCQSYDSSLSGYVFGGGTQLTVLG
B2: 355B06 germlined IgG (antibody, V domains shown)
VH: B1 VH with H31D, G57S, Q65R, D104G, S105E, P106S, N107S, A108G, E109Q, I110L
VL: B1 VL with N53D, S96G
B3: 087B03 germlined IgG (antibody, V domains shown)
VH: EVQLVESGGGVVRPGGSLRLSCAASGFTFDDYGMNWVRQAPGKGLEWVSGVNWNGGTRDYAASVKGRFTISRDNAKNSLYLQMNSLRAEDTALYHCARGWYSGAAWNMGYWGRGTLVTVSS
VL: QAALTQPASVSGSPGQSITISCTGASGDVGAYNFVSWYQQHPGKAPKLIIYDVNKRPSGVSNRFSGSKSGNTASLTISGLQAEDEADYYCSSYTSTFSVVFGGGTKLTVLG
B4: 166B06 germlined IgG (antibody, V domains shown)
VH: QVQLVQSGAEVKKPGASVKVSCKASGYTFSDYYIHWVRQAPGQGLEWMGWVNPDTGGTRYAQKFQGRVTMTRDMSISTAYMELSRLRSDDTAVYYCARDLTGFDPFDIWGQGTLVTVSS
VL: SSVLTQPPSVSVAPGKTARITCGGNNFRNKRVHWYQQKPGQAPVLVIYYDSDRPSGIPERFSGSRSGNTATLTISRVEAGDEADYYCQVWDLFNDNGVFGGGTKLTVLG
B5: 166G05 germlined IgG (antibody, V domains shown)
VH: B4 VH
VL: B4 VL with L92F, F93L, N94T, N96S, V98S
B6: 354A08 germlined IgG (antibody, V domains shown)
VH: B1 VH with H31D, Q65R, K102R, D104G, S105D, P106S, N107T, A108G, E109Q, I110V
VL: B1 VL with Q91Y, S92H, Y93W, S95K, S96E, L97Q
B7: 368D04 IgG (non-germlined) (antibody, V domains shown)
VH: B3 VH with H95Y
VL: B3 VL with A3V, A8S, A45T, A86S, S91A, Y93L, T94V, T96D, L107V
B8: 062G05 IgG (non-germlined) (antibody, V domains shown)
VH: QVQLVESGAEVKKPGASVKVSCKASGYTFTSYGISWVRQAPGQGLEWMGWISAYTGNTNYAQKFQGRVTMTTDTSTSTAYMELRSLRSDDTAVYYCARDRGYYDAFDIWGQGTLVTVSS
VL: DIQMTQSPSTLSASIGDRVTITCRASEGIYHWLAWYQQKPGKAPKLLIYKASSLASGAPSRFSGSGFGTDFTLTISSLQPDDFATYYCQQMGEWKAAFGGGTKLEIKR
B9: 367D04 IgG (non-germlined) (antibody, V domains shown)
VH: B3 VH with H95Y, A104S, A105P, N107S, M108L, Y110H
VL: QAVLTQPSSVSGSPGQSVTISCTGASGDVGAYNFVSWYQQHPGKTPKLIIYDVNKRPSGVSNRFSGSKSGNTASLTISRLQAEDESDYYCSSYTSRYTTEFGGGTKVTVLG
B10: 375G06 IgG (non-germlined) (antibody, V domains shown)
VH: EVQLVQSGAEVKKPGASVKVSCQASGYTFSDYYIHWVRQTPGQGFEWMGWVNPDTGGTRYAQKFQGWVTMTRDMSNTTAYMELPRLRDDDTAVYYCARDLTGYDYYDRWGQGTLVTVSS
VL: QSVLTQPPSMSVAPGKTATITCGGNNFRNKRVHWYQQRPGQAPVLVIYYDSDRPSGIPERFSGSRSGNTATLTISRVEAGDEADFYCQVWDFLADEAMFGGGTKLTVL
B11: 376B10 IgG (non-germlined) (antibody, V domains shown)
VH: B10 VH with R85G, Y105Q, D107T, R108A
VL: QSVLTQPPSVSVAPGKTATITCGGNNFRNKRVHWYQQRPGQAPVLVIYYDSDRPSGIPERFSGSRSGNTATLTISRVEAGDEADFYCSTFDPFTDRPLFGGGTKLTVLG

Key:
human IL-22 (human) = assay: ELISA: plate coated with 1 µg/ml antigen, IgG at 1 µg/ml, HRP anti-human IgG, A450
rat IL-22 (rat) = assay: as above

Binder | binding (human IL-22 (human)) | binding (rat IL-22 (rat))
B1 | binds | binds
B2 | binds | binds
B3 | binds | –
B4 | binds | –
B5 | binds | –
B6 | binds | –
B7 | binds | binds
B8 | binds | –
B9 | binds | –
B10 | binds | –
B11 | binds | –
